According to patent US20250109190A1:
Results are given in words; binding and its absence hold for the method and conditions named. Some binding calls cover weakened binding; strength is not graded here.

Sequences of proteins named here, by UniProt entry; tags and fusion partners are left off. A change or cut given only in a name is not applied to a line headed by its entry. Residues count along the entry.
UniProt P08476: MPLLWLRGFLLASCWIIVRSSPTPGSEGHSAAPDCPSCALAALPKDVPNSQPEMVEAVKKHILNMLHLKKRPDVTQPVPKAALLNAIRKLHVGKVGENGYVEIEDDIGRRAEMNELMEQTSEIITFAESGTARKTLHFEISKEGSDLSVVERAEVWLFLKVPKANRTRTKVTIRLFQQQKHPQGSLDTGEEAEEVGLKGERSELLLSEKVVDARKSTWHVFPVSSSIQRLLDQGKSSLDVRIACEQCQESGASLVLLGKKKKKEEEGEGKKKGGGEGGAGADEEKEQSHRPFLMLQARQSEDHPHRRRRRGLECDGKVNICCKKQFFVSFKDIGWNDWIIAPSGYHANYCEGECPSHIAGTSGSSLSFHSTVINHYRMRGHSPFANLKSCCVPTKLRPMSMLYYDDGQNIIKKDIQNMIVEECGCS
UniProt P09529, residues 293-407: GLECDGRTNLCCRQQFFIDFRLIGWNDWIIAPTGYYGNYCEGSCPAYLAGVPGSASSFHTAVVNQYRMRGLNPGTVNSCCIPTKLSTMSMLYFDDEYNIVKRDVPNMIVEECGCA

Experiments:
[1] = molecular target: human Activin A Fc (human) (UniProt P08476); test: summary of Tables 4 and 5 (SPR, Octet)
Activin B = Activin B (UniProt P09529); test: BLI Octet; IgG, avid; binder with a poor fit to a 1:1 model

Binder | binding [1] | binding (Activin B)
Antibody P (Clone P), IgG (antibody, V domains shown) VH: QVQLVQSGAEVKKPGSSVKVSCKASGGTFDDYAISWVRQAPGQGLEWMGGIIPRFGIANYAQKFQGRVTITADESTSTAYMELSSLRSEDTAVYYCARPPSSGSDWGQGTLVTVSS VL: DIQMTQSPSSVSASVGDRVTITCRASQGIDSWLAWYQQKPGKAPKLLIYAASSLQSGVPSRFSGSGSGTDFTLTISSLQPEDFATYYCQQVHSFPITFGGGTKVEIKR | binds | binds
Antibody F (Clone F), IgG (antibody, V domains shown) VH: QVQLVQSGAEVKKPGASVKVSCKASGYTFTGYHIHWVRQVPGQGLEWMGVISAYSGDTNYAQKLQGRVTMTTDTSTSTAYMELRSLRSDDTAVYYCARARDIAALGLGAFDYWGQGTLVTVSS VL: EIVLTQSPATLSVSPGERATLSCRASQSVSSNLAWYQQKPGQAPRLLIYGASDRATGIPARFSGSGSGTEFTLTISSLQSEDFAVYYCIQYSNYPRTFGGGTKVEIKR | binds | –
Antibody L (Clone L), IgG (antibody, V domains shown) VH: QVQLQESGPGLVKPSETLSLTCAVSGYSISSGYYWGWIRQPPGKGLEWIGSIYHSGSTYYNPSLKSRVTISVDTSKNQFSLKLSSVTAADTAVYYCAREAGSGYWYLSVYGMDVWGQGTTVTVSS VL: EIVLTQSPATLSVSPGERATLSCRASQSVSSNLAWYQQKPGQAPRLLIYGASTRATGIPARFSGSGSGTEFTLTISSLQSEDFAVYYCQQSDDWPWTFGGGTKVEIKR | binds | –
